First the molecules themselves.
B1: CEP104 (protein, UniProt Q80V31 1-926)
chain: MPHKIGFVVVSSSGHEDGFSARELMIHAPTVSGWRSPKFCQFPQEIVLQMVERCRVRKLQLLAHQYMISSKVEFYISESLPEYLVPYQAERFRRLGYVSLCDNEKTGCKARELKSVYVDAVGQFLKLIFHQNHANKYNIYNQVALVAINIIGDPADLGDESNITSREKLIDHYLGHSPHNPEDPALDGTFSGRSDYISPLDDLAFDMYQDPEVAQIIRRLDERKREAVKKERYDHAKKLKQAIADLQKVGERLGRYEVEKRCAVEKEDYDLAKEKKQQMARYRAQVYEQLELHGLLQGEPEMQRPFALPLQPLASPSSPQHWKAVSSLPRTEKLVAEDSFAGPVLQEKPSASSPQHSAVDPSPPAAGHAPRSHTEVLPYDERPLPVTRKQLGEASAEAEVKEADSDVRRRGVAGEPEPLTEKALREASAAIDTLGEALVAGAYSKMWSCREDALLALYKKLMEMPVGTQKEDLKNMLRASVFLIRRAIKDIVASVFQASLKLLKMIITQYIPKHKLGKLDTTHCVERAFPLLLARAGDSSARLRVMALNFIQEMALFKEVKSLQLIPSYLVQPLKANASVHLAMSQVDLLARLLRDLGTESSGFTVDNVMKFAVSALEHRVYEVRETAVRIILDMYRQHPALTLEHLPPDDSATRRNLLYKAIFEGFAKIDGSVLPTEAEVRAQKRVATKEAEKQKKEEMKALQGQSGELRETQAGVQEKESEAVKLRNQDPQGRKAVLPDTPEIPANHFLDNLCIFCGERNESFTEEGLDLHYWKHCLMLTRCDHCRQVVEISSLTEHLLTECDRRDGFGKCPRCSEAIPKEELPGHIKTKECSPAKPEKVANHCPLCHENFAPGEEAWKVHLMGPAGCTMNLRKTHVLYKATAPQQGKGPAAAKSSTSAPKVGSKIPTPKGGLSKSSSRTYMRR
B2: CSPP1 (protein, UniProt B2RX88 1-1205)
chain: MADSLDEFIEEQKAKLAKDKAELESDPPYMEMKGKASEKLSENSKILISMAKENIPPSSQQQPKGPLGIEYGLSLPLGEDYEQKKHKLKEELRQDYRRYLTQGITQAKRKKNFLSTGETDPSTLGVSLPIDERLSAKERLKLERNREYNQFLRGKAESTEKVRQVEKNIEPKSQRNKNPISQGKSDLPLQIQTAYTHSEGPWLSRQEEGLYRQLDGEIELRSRRPLKQTKEEVGISGAEHPSLSGSAGVPERRARRANGERVLDRQHCRADRDPGVSEDMDERFRFESDFDRRLLRVYTNGRPHGSRRGYVDGDDVPEEPNTQISAAENKSVHCNGPPRSADLDITSPFAGMLFGGEDRELTKRRKEKYRQELLEQIAEQQKKKRREKDLAFGITTSGVQDPEKSPDRLKQFSLTPRHFEEMPPERPRVAFQTPPPPFSAPSSPSVPPVHSAPSHNEDLHSGLGSTLGELAHPRVLPVPLNPPPPPLLAPPASNYRTPYDDAYYFYGARNTLDPNIVYYGSGMIGGQPAPHVSAPVTHQVAPPAVNTVGQNEQKVLSDGLRNSGLVFEDKPKPSTQSLQSYQEALQEQIREREARRKKERLEKEEYEAKLEAEMRIYNPWGKGGGGAPLRDAKGNLITDLNRMHRQNIDAYHNPDARTYEDKRAVVSIDQNLATSNAENLEDSANKNSGPLQTQSSPFARGNTFGEPLSELQIKQQELYKNFLRFQIEEKRQREEAEREKLRVAEEKEEKRLAEQRARIQQEYEEEQERRREKEEEQRLKNEELIRLAEERRKEAERKKKEEEEKHNLQLQHYYERENIIGDETKHLRQPSPVVPALQNKIASKLQRPPSVDTIISSFIHESSMSRAQSPPVPARKNQLRAEEEKKNVIMELSEMRKQLRSEERRLQGRLLHLDSDDEIPMRKRERNPMDIFDMARHRVQAPVRRPSPKGLDATTFQNIHDFNELRERDSDTRVDLRLMYPDPPRDHHTLEIQQQALLREQQKRLNRIKMRRDAGADLDTICTDNAQGRRMPRDDTNDFLKNSLLESDSAFIGAYGETYPVIEDNAFPPPSQLPSARERRRNKLKGLDFDSSRLHTPQDGLSLKSISSVNVDQVRMRNEDRMRRLTEQQKKPTNTDDEGSLVDPDDIMRHLSDDGRNSAATEPWLRPGTSESLKRFMAEHLNEEQHKGPGKPGTFTWQGLSAAHA
B3: ARMC9 (protein, UniProt Q9D2I5 1-817)
chain: MGDILAHESELLGLVKEYLDFAEFEDTLKTFSKECKVKGKPLCKNVGGPLKKDSKSLVIQRDLVAAFDSGDQKAFFDLWEGHIPSSVRDTDSLAQKLEFYLHIHFAIYLLKYCRGRPDKQELDKRISYFKTYLETKGAALSQTTEFLPFYALPFVPNPMVHPSFKELFQDSWTPELKLKLEKFLALTFKANNTPKLLTIYKENGPNSKELLQQLHQQLVEAERRAMTYLKRYNKIQADYHNLIGVTAELVDSLEATVSGKMITPEYLQSVCVRLFSNQMRQSLAHSVDFTRPGTASTMLRASLAPEKLKDVPLLPSLDYEKLKKDLIWGSDRLKAFLLQALRWRLTTSHPGEQRETVLQAYISNDLLDCHSHNQRSVLQLLHSKSEAVRQYMARLINALASLAEGRLYLAQNTKVLRMLEGRLKEEDKDVITRENVLGALQKFSLRRPLQTAMIRDGLIFWLIDLLKDPDCLSDYTLEYSVALLMNLCLRSAGKNMCAKVAGLMLKVLSDLLGHENHEIQPYVNGALYSILSIPSIREEARAMGMEDILRCFIKEGNAEMIRQIEFIIKQLNSEDLLDGVLESDDDEDEDDEEDHDIMEADLDKDELIQPQLGELSGEKLLTTEYLGIMTNTGKARRKGPASVQWSGDEPLRRPVTPGGHRTGCPVLGDHLISPQNAQQARNGCLRAMPVAHPDDYKEGKPGVTGCGTSSSFMDHKPREWSPAGHQKSRLVPTAALGWPREMTQDPSSGHITREFVPAFTCKPQVPSTPETVEQNPLKAKALSLAPQFSSSGPQQASRPASTASSTRGLHSSQSIRK

The chains behind the UniProt entries cited, without tags or fusion partners.
UniProt Q6A070: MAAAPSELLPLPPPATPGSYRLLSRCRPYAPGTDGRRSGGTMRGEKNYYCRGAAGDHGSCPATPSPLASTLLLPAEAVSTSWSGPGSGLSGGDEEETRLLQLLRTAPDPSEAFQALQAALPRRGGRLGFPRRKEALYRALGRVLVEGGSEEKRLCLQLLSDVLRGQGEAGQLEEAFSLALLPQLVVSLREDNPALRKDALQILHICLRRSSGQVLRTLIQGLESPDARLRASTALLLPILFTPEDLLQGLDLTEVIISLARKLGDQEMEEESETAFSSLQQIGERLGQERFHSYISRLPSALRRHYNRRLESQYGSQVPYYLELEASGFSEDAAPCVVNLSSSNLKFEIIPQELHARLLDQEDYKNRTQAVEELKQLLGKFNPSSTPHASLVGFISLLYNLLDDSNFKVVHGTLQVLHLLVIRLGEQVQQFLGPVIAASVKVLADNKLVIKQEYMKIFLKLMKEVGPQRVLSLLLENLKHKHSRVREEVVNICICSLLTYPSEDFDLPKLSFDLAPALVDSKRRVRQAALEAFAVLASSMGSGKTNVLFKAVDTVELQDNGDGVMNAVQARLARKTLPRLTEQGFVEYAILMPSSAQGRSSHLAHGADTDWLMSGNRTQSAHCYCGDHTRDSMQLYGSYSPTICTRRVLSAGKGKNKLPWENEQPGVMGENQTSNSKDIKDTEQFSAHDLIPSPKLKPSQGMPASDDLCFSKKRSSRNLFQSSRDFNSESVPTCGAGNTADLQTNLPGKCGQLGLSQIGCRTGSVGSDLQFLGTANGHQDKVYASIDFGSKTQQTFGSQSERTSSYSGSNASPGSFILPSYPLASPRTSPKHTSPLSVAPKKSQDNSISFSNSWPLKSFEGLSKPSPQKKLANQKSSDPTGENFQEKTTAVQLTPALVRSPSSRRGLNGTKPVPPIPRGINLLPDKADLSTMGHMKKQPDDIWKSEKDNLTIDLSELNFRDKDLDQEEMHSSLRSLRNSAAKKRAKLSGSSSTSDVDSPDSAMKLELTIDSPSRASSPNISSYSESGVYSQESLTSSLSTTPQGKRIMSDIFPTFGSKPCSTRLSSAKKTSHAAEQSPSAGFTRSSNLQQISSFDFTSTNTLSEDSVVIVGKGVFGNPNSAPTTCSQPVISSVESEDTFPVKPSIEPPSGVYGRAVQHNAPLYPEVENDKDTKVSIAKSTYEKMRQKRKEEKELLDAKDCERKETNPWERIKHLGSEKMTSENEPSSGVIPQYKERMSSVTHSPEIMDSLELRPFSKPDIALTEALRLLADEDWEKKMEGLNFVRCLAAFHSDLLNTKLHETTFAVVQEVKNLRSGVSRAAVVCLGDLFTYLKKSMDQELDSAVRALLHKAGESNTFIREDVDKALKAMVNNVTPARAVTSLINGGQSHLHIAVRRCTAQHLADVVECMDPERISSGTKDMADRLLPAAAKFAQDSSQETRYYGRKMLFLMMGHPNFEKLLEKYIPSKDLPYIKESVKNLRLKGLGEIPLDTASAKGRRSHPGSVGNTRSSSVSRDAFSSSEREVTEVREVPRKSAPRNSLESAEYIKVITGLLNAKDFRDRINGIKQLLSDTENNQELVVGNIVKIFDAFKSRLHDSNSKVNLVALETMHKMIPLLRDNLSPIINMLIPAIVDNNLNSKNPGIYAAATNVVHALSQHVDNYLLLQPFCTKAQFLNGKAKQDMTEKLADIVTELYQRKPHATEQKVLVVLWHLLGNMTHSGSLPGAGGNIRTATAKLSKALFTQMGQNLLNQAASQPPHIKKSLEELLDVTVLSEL

No constants are given. Whether binding was seen depends on the method and setting. Binding seen in cells or lysates may run through a third protein. These calls come from enrichment with a bait or labelling near it, and not all partners need be listed. No binding means not detected with the bait. Where a sequence is shown, tags or fusion partners need not be part of it.

The target in this test is T1, Flag-miniTurbo-CCDC66 (UniProt A2RUB6).
T1 sequence: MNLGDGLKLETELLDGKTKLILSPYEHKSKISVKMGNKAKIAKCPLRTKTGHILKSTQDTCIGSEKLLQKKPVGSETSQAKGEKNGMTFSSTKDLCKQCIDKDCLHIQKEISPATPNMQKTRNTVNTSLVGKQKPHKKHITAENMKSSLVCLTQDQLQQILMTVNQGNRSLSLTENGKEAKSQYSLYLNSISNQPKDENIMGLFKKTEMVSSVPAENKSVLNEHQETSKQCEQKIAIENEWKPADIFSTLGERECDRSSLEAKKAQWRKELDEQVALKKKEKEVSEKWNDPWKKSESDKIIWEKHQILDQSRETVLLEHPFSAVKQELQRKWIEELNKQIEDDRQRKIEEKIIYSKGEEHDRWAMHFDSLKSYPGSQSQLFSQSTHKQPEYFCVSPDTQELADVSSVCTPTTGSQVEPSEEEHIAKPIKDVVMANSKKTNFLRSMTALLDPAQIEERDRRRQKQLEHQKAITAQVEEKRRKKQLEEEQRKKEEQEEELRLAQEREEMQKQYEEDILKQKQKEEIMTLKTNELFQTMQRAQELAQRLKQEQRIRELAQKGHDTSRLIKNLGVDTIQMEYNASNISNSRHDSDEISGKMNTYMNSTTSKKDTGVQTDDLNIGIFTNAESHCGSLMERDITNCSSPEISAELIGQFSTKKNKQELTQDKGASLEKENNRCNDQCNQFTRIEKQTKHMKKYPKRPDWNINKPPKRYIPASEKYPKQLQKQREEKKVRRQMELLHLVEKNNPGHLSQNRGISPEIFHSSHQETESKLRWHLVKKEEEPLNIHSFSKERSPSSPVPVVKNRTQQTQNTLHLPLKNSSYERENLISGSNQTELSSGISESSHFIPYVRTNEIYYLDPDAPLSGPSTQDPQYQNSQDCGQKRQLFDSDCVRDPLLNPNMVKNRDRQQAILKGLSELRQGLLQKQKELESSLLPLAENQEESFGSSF
Kind of test: proximity labelling; IMCD3 cells stably expressing Flag-miniTurbo-CCDC66 (control Flag-miniTurbo), serum starved 48 h, serum stimulated 1 h or 6 h, 500 uM biotin for the last 30 min; RIPA lysis, streptavidin-agarose pull-down, mass spectrometry, NSAF analysis.
Consider TOGARAM1 (from UniProt Q6A070 1-1776), for which the binding entry was “binds”.

RAB5 (mouse (endogenous in IMCD3)): the binding result is listed as “binds”.

On to RAB7 (mouse (endogenous in IMCD3)), for which the binding entry is listed as “no binding”.

Regarding B1, the binding result is given as “binds”.

Take B2: the binding result is on record as “binds”.

Turning to B3, the binding result was “binds”.
